This assay can be described thus: qHTS Assay for Lipid Storage Modulators in Drosophila S3 Cells.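 As to cell number change: cells counted by Cell Tracker Red CMTPX staining in the red channel.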 The conditions noted are these: BODIPY lipid droplet fluorescence, 18-24 h; for cell number change: measured here: cell count max response, cells fed with added oleic acid. The procedure, abridged:
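Drosophila S3 cells loaded with oleic acid (400 uM, as added) and compounds at several concentrations; lipid droplets imaged by 488-nm laser-scanning cytometry, 500–530 nm intensity and object ratio to cell channel. Percent activity normalized to 20 uM Triacsin C.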
Background: qHTS replaces the single test concentration by a dilution series.

Where [1] appears, read: measured here: lipid fluorescence (Fed channel) AC50, cells fed with added oleic acid.
The mark [2] stands for this setting: measured here: cell number channel AC50, cells fed with added oleic acid.

Some of the results follow. These are further read-outs of the screen, such as a control signal, another cell line or another target. No call is given for them. Most of these compounds were active or inconclusive in the main read-out, so they are no random draw. The note in brackets gives the kind of curve behind each potency; many fits are weak.

Usually AC50 stands for the midpoint of the concentration-response curve, whichever way the signal moves. Low values mean activity at low concentration, high ones activity only at high concentration. Take `COc1ccc(CCNCCN2CCOCC2)cc1`: the cell number change worked out at 13.5%. Moreover, the AC50 under setting [1] was 3.66 µM [rising, single point].

As to `C=C(C)Cn1c(=O)c2c(nc3n2CCCN3Cc2ccccc2)n(C)c1=O`, the cell number change is 22.7%. The AC50 under setting [1] was 0.58 µM [rising, full curve, poor fit].

With `CCn1nnc(NC(=O)CSc2ccc(Cl)cc2)n1`, the cell number change was -2.32%. Also, the AC50 under setting [1] is 0.116 µM [rising, full curve, poor fit].

Regarding `Cc1ccc(N(C(=O)CNC(=O)c2ccco2)C(C(=O)NC2CCCCC2)c2cccnc2)c(C)c1` (stereo not drawn), the cell number change was -5.22%. The AC50 under setting [1] was 0.58 µM [falling, single point].

For the compound `OCCN1CCN(CCCc2c3c(cc4c2CCC4)CCC3)CC1`, the cell number change is -26%. Moreover, the AC50 under setting [1] was 29.1 µM [falling, single point].

As for `CN(Cc1cccc(C(F)(F)F)c1)C(=O)C1CCC(=O)N(CC2CCCCC2)C1` (stereo not drawn), the cell number change is -14.3%. Also, the AC50 under setting [1] is 29.1 µM [falling, single point].

Consider `COc1ccccc1NC(=O)c1cnc(SCC(=O)NCCc2ccccc2)n(C)c1=O`, for which the cell number change is -15.8%.

As to `OC(COc1ccc(Br)cc1)CN1CCN(c2ccccc2)CC1` (stereo not drawn), the cell number change worked out at 14.4%. The concentration at half-maximal activity (AC50) under setting [1] is 0.058 µM [rising, full curve].

Consider `CC(C)C(=O)Nc1ccc2c(c1)C(=O)N(CCC(=O)O)C2=O`, for which the cell number change is 10.5%. Besides, the AC50 under setting [1] was 0.0103 µM [falling, full curve].

Regarding `O=C(NC(=S)Nc1cc(-c2nc3ccccc3[nH]2)ccc1Cl)c1ccc2c(c1)OCO2`, the cell number change came out at 14.8%. Besides, under setting [1], the half-maximal activity concentration (AC50) is 1.84 µM [rising, partial curve].

For `O=C(/C=C/c1cccs1)NCc1ccc2c(c1)OCO2`, the cell number change was determined as 22.3%. Also, the AC50 under setting [1] was 29.1 µM [falling, single point].

For `COc1ccccc1CN=Cc1[nH]c2ccc(Br)c(Cl)c2c1O`, the AC50 by setting is: under setting [2], 3.66 µM [rising, partial curve, poor fit]; under setting [1], 11.6 µM [rising, partial curve].

`Cc1ccn2c(Nc3ccccc3C)c(-c3ccccn3)nc2c1`: the cell number change was -54.4%. Moreover, under setting [2], the AC50 was 29.1 µM [falling, single point]. Besides, the AC50 under setting [1] was 20.6 µM [falling, single point].

In the case of `Cc1ccccc1NC(=S)/C(=C(\[O-])c1ccc(C)c([N+](=O)[O-])c1)[n+]1ccccc1`, the AC50 under setting [1] is 6.51 µM [falling, single point].

Consider `O=C(NC12CC3CC(CC(C3)C1)C2)N1CCN(C(=O)C2CCCO2)CC1` (stereo not drawn), for which the cell number change was -113%. Under setting [2], the AC50 was 16.4 µM [falling, partial curve]. In addition, the AC50 under setting [1] is 20.6 µM [falling, partial curve].

Turning to `CCOP(=O)(O)c1ccccc1OCCCCCOc1ccccc1P(=O)(O)OCC`, the cell number change was found to be 22.5%. The AC50 under setting [1] was 32.6 µM [rising, partial curve, poor fit].

On to `Cn1nc(-c2ccc(N3CCOCC3)c(NS(=O)(=O)c3ccccc3)c2)c2ccccc2c1=O`, for which the cell number change was determined as 236%. The AC50 under setting [2] was 1.16 µM [rising, full curve]. Also, the AC50 under setting [1] is 2.06 µM [rising, partial curve].

As to `COc1ccc(C(CC(=O)Nc2ccccc2OC)n2cccc2)cc1` (stereo not drawn), the cell number change was determined as 19.2%. Moreover, under setting [1], the AC50 is 13 µM [rising, partial curve, poor fit].

`CCSc1nnc(NC(=O)c2csc(C)c2)s1`: the cell number change is 0.703%.

For the compound `O=C(CSc1nnc(-c2ccccn2)n1Cc1ccccc1)Nc1ccc2c(c1)OCO2`, the cell number change was -0.359%. Further, the AC50 under setting [1] was 1.46 µM [rising, full curve].

As to `O=C(CSc1nnc(-c2ccncc2)n1-c1ccc(Cl)cc1)NCc1cccs1`, the cell number change is -19.5%. For the same compound, the AC50 under setting [1] is 1.46 µM [falling, partial curve, poor fit].

As to `Cc1cc(C(C)(C)C)c(OC(=O)[C@@H]2OC(c3ccccc3)=C[C@H]2c2ccccc2)c(C(C)(C)C)c1`, the cell number change is -22.1%. For the same compound, the AC50 under setting [1] is 6.51 µM [falling, single point].

For `CS(=O)(=O)N(CC(=O)NCc1ccccc1Cl)c1cccc([N+](=O)[O-])c1`, the cell number change is -24.6%. Under setting [2], the AC50 is 0.00461 µM [falling, full curve, poor fit]. Further, the AC50 under setting [1] was 0.00461 µM [falling, full curve, poor fit].

As for `Cc1ccc2nc(/C(C#N)=C\c3ccc(Oc4ccc([N+](=O)[O-])cn4)cc3)[nH]c2c1`, the cell number change was 22.5%. Besides, the AC50 under setting [2] was 6.51 µM [falling, partial curve, poor fit].

As for `C/C(=N\Nc1ccccc1Cl)c1ccc(-n2ccnc2)cc1`, the cell number change was -11.1%. Moreover, the AC50 under setting [1] is 0.13 µM [rising, full curve, poor fit].

Take `COc1ccc(NC(=S)NN(C)C(=S)Nc2ccc(OC)cc2)cc1`: the cell number change worked out at 1.68%. Besides, under setting [2], the AC50 was 6.51 µM [rising, single point]. Moreover, the AC50 under setting [1] was 6.51 µM [rising, single point].

As for `COc1ccc(-n2c(C)cc(C(=O)CCl)c2C)cc1`, the AC50 under setting [1] is 32.6 µM [falling, partial curve, poor fit].

On to `CCCn1c2ccc(C)cc2c2n[nH]c(=S)nc21`, for which the cell number change worked out at 24.7%. The AC50 under setting [1] is 11.6 µM [rising, partial curve, poor fit].

Take `O=C(c1cnn2c(C(F)(F)F)cc(-c3ccccc3)nc12)N1CCOCC1`: the cell number change was -26.8%. Besides, the AC50 under setting [2] is 0.517 µM [falling, full curve]. Under setting [1], the concentration at half-maximal activity (AC50) was 0.13 µM [falling, full curve].

`COc1ccc(CNC(=O)C2CCCN(S(=O)(=O)c3ccccc3)C2)cc1` (stereo not drawn): the cell number change worked out at 8.01%. Also, under setting [1], the AC50 is 29.1 µM [rising, single point].

For `O=C(CSc1nc2ccccc2[nH]1)NCc1ccco1`, the cell number change worked out at 0.337%.

In the case of `CC(Sc1nncn1C)C(=O)Nc1nnc(C(C)C)s1` (stereo not drawn), under setting [2], the AC50 is 6.51 µM [falling, single point].

As for `O=C(CN(C(=O)CCC(=O)Nc1ccccn1)c1cccc(F)c1)NCc1ccco1`, the cell number change was -6.67%. For the same compound, the AC50 under setting [1] is 29.1 µM [falling, single point].

As for `O=C(CSc1nnc(NC(=O)c2c(F)cccc2F)s1)NCc1ccccc1`, under setting [1], the AC50 was 29.1 µM [rising, single point].

Consider `COC(=O)c1ccc(CSc2nnc(NCc3ccccc3)s2)o1`, for which the cell number change was -9.22%. In addition, the AC50 under setting [1] was 6.51 µM [rising, single point].

With `COc1cc(-c2noc(C)c2C(=O)NCCc2c[nH]c3ccccc23)cc(OC)c1OC`, the cell number change is -17.2%. The AC50 under setting [1] is 29.1 µM [falling, single point].

As for `O=C(Nc1nccs1)C(Br)C(Br)c1ccccc1` (stereo not drawn), the cell number change is -8.5%. Besides, under setting [1], the AC50 is 32.6 µM [falling, partial curve, poor fit].

For the origin of these results see PubChem BioAssay AID2685 (National Center for Advancing Translational Sciences (NCATS), 2010).
